# Data reported in patent US10632121B2, “Platelet-derived growth factor receptor mutations and compositions and methods relating thereto” (MEMORIAL SLOAN KETTERING CANCER CENTER, priority 2014, dated 2020).
# “Also recorded” adds a separate entry of the source. At least one structure is not confirmed: it was looked up by name or label, or the drawing left a doubt.
# Tests used:
# [1] = test system: TS543 GBM cells; assay: Western blot of pathway signaling, TS543; type: cell-based, human; settings: TS543, four hours
# Experimental: (§1) Cell lysates for western blots were harvested in cell lysis buffer (Cell Signaling 9803) supplemented with a protease inhibitor cocktail (Calbiochem cocktail II 524625) and phosphatase inhibitor cocktail (Calbiochem cocktail III 524627). Lysates were sonicated, centrifuged, then quantified (Bio-Rad DC Protein Assay 500-0113, 500-0114, and 500-0115). Samples were normalized to one another, then a reducing loading buffer was added. Samples were run on SDS-PAGE gels and semi-dry transferred to nitrocellulose membranes.
# (§2) SAR408 and SAR409 were provided by Sanofi. […] Antibodies for western blots were from Cell Signaling Technology with the following exceptions: actin (Sigma), total PDGFRA (Santa Cruz), and V5 epitope (Invitrogen). Western Blots were performed after four hours of drug treatment unless indicated otherwise. Electroluminescence was used to quantify phosphorylation of Akt and S6 ribosomal protein (FIG. 1B) (Meso Scale Discovery cat # K15100D-1 and cat # K150DGD-1). Cell Proliferation and Viability Assays were performed using a Beckman Coulter Vi-Cell XR Cell Viability Analyzer after five days of drug treatment unless indicated otherwise.
# [2] = test system: TS543 GBM cells (PDGFRA amplified); assay: Cell proliferation and viability (Vi-Cell, trypan blue), TS543; type: cell-based, human; settings: TS543, five day treatment
# Experimental: For growth assays performed on non-adherent cell lines (primary human neurosphere lines and S5472 cells) cells were single cell disassociated with Accumax, then counted using the Beckman Coulter Vi-Cell XR Cell Viability Analyzer. Cells were plated in a 6 cm dish in triplicate for each vehicle or drug sample. After five days in culture, each plate was individually spun down, Accumax disassociated, and counted with the Vi-Cell. The Vi-Cell uses trypan blue-exclusion as a measure for viable cells, trypan blue positive cells were used to calculate the percentage of cell death in each sample. The average and standard error of the mean was graphed using GraphPad Prism 6.
# as §2
# [3] = test system: H1703 cells; assay: Western blot of pathway signaling, H1703; type: cell-based, human; settings: H1703, four hours
# Experimental: as §1, §2
# [4] = test system: H1703 human non-small cell lung cancer cells (PDGFRA amplified); assay: Cell proliferation and viability (Vi-Cell, trypan blue), H1703; type: cell-based; settings: H1703, five day treatment
# Experimental: Growth assays performed on adherent cell lines were trypsanized, counted, and plated into 6 cm dishes. The next day media was removed, and replaced with reduced serum media (5% FBS) with drug or vehicle in triplicate for each concentration. After five days in culture, cells were analyzed in the same manner as non-adherent lines.
# as §2
structure (smiles),measurement,setting,value
CO[C@H]1C[C@@H]2CC[C@@H](C)[C@@](O)(O2)C(=O)C(=O)N2CCCC[C@H]2C(=O)O[C@H]([C@H](C)C[C@@H]2CC[C@@H](O)[C@H](OC)C2)CC(=O)[C@H](C)/C=C(\C)[C@@H](O)[C@@H](OC)C(=O)[C@H](C)C[C@H](C)/C=C/C=C/C=C/1C [rapamycin],TORC1 signaling (pS6 Ser235/6 and Ser240/4),[1],robust inhibition of TORC1 signaling
same,TORC2 functions (pAkt Ser473),[1],not TORC2 functions
same,cell death (% Trypan blue positive cells),[2],no induction of cell death; also recorded: not sufficient to induce cell death
same,proliferation / growth inhibition,[2],Proliferation was inhibited; also recorded: markedly impaired tumor cell proliferation
same,TORC1 signaling (pS6 Ser235/6 and Ser240/4),[3],robust inhibition of TORC1 signaling
same,TORC2 functions (pAkt Ser473),[3],not TORC2 functions
same,cell death (% Trypan blue positive cells),[4],no induction of cell death
same,proliferation / growth inhibition,[4],Proliferation was inhibited
